Laboratory results taken from patent US20160318844A1, “PROSTACYCLIN COMPOUNDS, COMPOSITIONS AND METHODS OF USE THEREOF” (Insmed Incorporated, priority 2015, published 2016).
For at least one compound, name, drawing or mass did not settle the structure. Some entries share one result that the patent states for a list of compounds. Some compounds share one range, which may span the group rather than tell each member.

Sequences of proteins named here, by UniProt entry; tags and fusion partners are left off. A change or cut given only in a name is not applied to a line headed by its entry.
UniProt P43116: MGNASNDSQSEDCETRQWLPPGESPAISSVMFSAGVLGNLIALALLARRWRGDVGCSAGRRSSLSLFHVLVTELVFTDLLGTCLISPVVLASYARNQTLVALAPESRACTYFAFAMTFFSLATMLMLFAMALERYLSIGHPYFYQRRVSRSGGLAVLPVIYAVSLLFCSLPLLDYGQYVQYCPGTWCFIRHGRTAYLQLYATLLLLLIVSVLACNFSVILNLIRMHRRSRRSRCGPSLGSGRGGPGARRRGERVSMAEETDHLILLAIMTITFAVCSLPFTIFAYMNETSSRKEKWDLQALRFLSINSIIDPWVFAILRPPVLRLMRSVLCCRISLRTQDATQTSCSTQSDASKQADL

Key:
EP2 prostanoid receptor = molecular target: T1, EP2 prostanoid receptor (Homo sapiens, UniProt P43116); test: GloSensor cAMP assay in CHO-K1 cells co-transfected with the EP2 receptor; type: cell-based; conditions: for cAMP levels increased over the first: 10 μM and 5 μM, FIG. 21; for cAMP response levels: unformulated compounds, FIG. 5
T1 construct: host or cells: CHO-K1
Excerpt: cAMP is a second messenger involved in signal transduction of G-protein coupled receptors (GPCRs) acting through Gα-s and Gα-i proteins. Because the treprostinil receptor is a GPCR, the assay provides an indication of whether the respective prostacyclin compound (or metabolite thereof) binds its receptor and activates the GPCR cell signaling cascade. The GloSensorTM assay harnesses a genetically modified form of firefly luciferase into which a cAMP-binding protein moiety has been inserted. Upon binding of cAMP, a conformational change is induced leading to increased light output. The EP2 prostanoid receptor was cotransfected with the GioSensorm plasmid (Promega) into CHO-K cells as follows. CHO-K cells were harvested when the monoloayer was at 50-90% confluence. First, cells were washed with 5 mL PBS. […] The media was aspirated, and the cell pellet was resuspended in 10 mL of growth media. Cell number was determined using a hemacytometer. […] For small scale transfections of up to 20 wells, the pGLoSensor-22F cAMP plasmid (Promega, Cat #: E2301) (2 apg): […] Cat #: […] P2271) ratio was diluted to a final concentration of 12.6 ng/μL (total plasmid) in Opti-MEM I reduced-serum medium (Life Technologies, Cat #: 1985062). Next, 6 μL of FuGENE HD transfection reagent (Promega, Cat #: E2311) was added to 160 μL of diluted plasmid and mixed carefully by gentle pipetting. The complex was incubated at room temperature for 0 to 10 minutes, and then 8 μL of the complex was added per well of a 96 well white assay plate (Costar, Cat #: 3917) and gently mixed without disturbing the cell monolayer. […] Following incubation, cells were treated and analyzed. For larger scale transfections, the aforementioned steps were scaled up accordingly, and cells were frozen following the last incubation. In order to prepare frozen transfected CHO-K cells, the media was aspirated from culture flasks and cells were rinsed with 5 mL PBS. […] Cell number was determined using a hemacytometer. The media was aspirated, and the cell pellet was resuspended in freezing media (Millipore, cat #: S-002-SF) at 2.5×10^4 cells/vial. Transfected cells were incubated overnight at -80° C. before transfer to liquid nitrogen for long term storage. […] SH30071.03)). […] In preparation for cAMP measurement, the cells were equilibrated with the GloSensor cAMP reagent prior to treatment. For equilibration, the medium was carefully removed from the individual well. Next, 100 μL of equilibration medium ([…] of Glosensor Reagent stock solution (Promega, Cat #: E291), 10% FBS (Hydone, Cat #: SH30071.03) and 88% CO2 independent medium (Life Technologies, Cat #: 18045088)) was added per well of the 96-well plate, and added to the side of each well. The plate was then incubated for 2 hours at room temperature. A first pre-read measurement was taken using a microplate reader (MicroLumat Plus). Plates were incubated for an additional 10 minutes at room temperature, followed by a second pre-read measurement. […] Following treatment, each plate was read every 5 minutes for the duration of the assay using a microplate reader (MicroLumat Plus). In order to determine the fold change in cAMP relative to the control, the transfection efficiency was first determined by dividing the second pre-read measurement by the average of the corresponding pre-read measurements. Next, the normalized relative light units (RLUs) of the samples were determined by dividing the plate read measurement by the transfection efficiency. The fold change in cAMP relative to the control was then determined by dividing the normalized RLU of the samples by the normalized RLU of the control. The cAMP assay was validated using free treprostinil. […] Luminescence was then measured at room temperature. […] Nebulizer Aeroneb Pro (Aerogen) was used to nebulize treprostinil derivative compositions. Desired volume of the formulation (usually 3 mL) was loaded to the mesh head of the nebulizer. […]

[1] = Particle size characterization of treprostinil compositions (QELS); type: physicochemical; conditions: compositions of Table 3, FIG. 2
[2] = kinetic profile at 10 μM and 5 μM

Row | SMILES | cAMP levels increased over the first (EP2 prostanoid receptor) | cAMP levels / activation sustained for (EP2 prostanoid receptor; [2]) | polydispersity (% PD) [1] | cAMP response levels (EP2 prostanoid receptor; 5 μM) | ranking of activity (EP2 prostanoid receptor; [2]) | duration of cAMP levels (EP2 prostanoid receptor; 5 μM, FIG. 4 and FIG. 5) | cAMP response compared with free treprostinil (EP2 prostanoid receptor; compositions, 5 μM, FIG. 4)
1 | CCCCC[C@H](O)CC[C@@H]1[C@H]2Cc3cccc(OCC(=O)OC(CCCC)CCCC)c3C[C@H]2C[C@H]1O [Compound 5C9-TR, 5-nonanyl-treprostinil] | 1 to 1.5 h | at least 8 hours |  |  |  |  | 
2 | CCCCC[C@H](O)CC[C@@H]1[C@H]2Cc3cccc(OCC(=O)OCC)c3C[C@H]2C[C@H]1O [Compound C2-TR, treprostinil ethyl ester] |  |  | greater than 15 % PD | equivalent to free treprostinil |  | sustained significantly longer than free treprostinil | greater than or equivalent to the response induced by free treprostinil

Further lines, with some results ahead:

Row | cAMP levels increased over the first (EP2 prostanoid receptor) | cAMP levels / activation sustained for (EP2 prostanoid receptor; [2]) | polydispersity (% PD) [1] | cAMP response levels (EP2 prostanoid receptor; 5 μM) | ranking of activity (EP2 prostanoid receptor; [2]) | SMILES | duration of cAMP levels (EP2 prostanoid receptor; 5 μM, FIG. 4 and FIG. 5) | cAMP response compared with free treprostinil (EP2 prostanoid receptor; compositions, 5 μM, FIG. 4)
3 |  |  | around 15 % PD |  |  | CCCCCCCCOC(=O)COc1cccc2c1C[C@H]1C[C@@H](O)[C@H](CC[C@@H](O)CCCCC)[C@H]1C2 [Compound C8-TR, treprostinil octyl ester] |  | 
4 | 1 to 1.5 h | at least 8 hours | around 15 % PD | smallest cAMP response | C12-TR>C14-TR>5-nonanyl-TR>C16-TR | CCCCCCCCCCCCOC(=O)COc1cccc2c1C[C@H]1C[C@@H](O)[C@H](CC[C@@H](O)CCCCC)[C@H]1C2 [Compound C12-TR, dodecyl-treprostinil] |  | 
5 | 1 to 1.5 h | at least 8 hours |  |  |  | CCCCCCCCCCCCCCOC(=O)COc1cccc2c1C[C@H]1C[C@@H](O)[C@H](CC[C@@H](O)CCCCC)[C@H]1C2 [Compound C14-TR, tetradecyl-treprostinil] |  | 
